The values are deposited in ChEMBL (CHEMBL3988442, “University of Dundee, Small-Polar-MMV Screening Library” (2021)).

Results are given as percent effect. The controls that fix the scale are not given in the record; negative values are as filed. This is an unselected part of the compounds tested.

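Whole-cell assay for inhibitors of Mycobacterium tuberculosis growth, labelled Cornell in the record; the read-out is not stated. The concentration is filed as 10 mM, unlikely as a test dose, so the dose is not known. Higher means stronger inhibition (inferred from two other growth screens of the library). Size under these conditions: about 53,000 compounds, about 900 of them at 50% or above in at least one test.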

| # | SMILES | effect |
|---|---|---|
| 1 | `CC(=O)N1CCN(C(=O)NCCCc2cn[nH]c2C)CC1` | -10.23 |
| 2 | `Cc1cc(Cl)c(C)c(S(=O)(=O)N2CCN(Cc3ccccn3)CC2)c1Cl` | -7.249 |
| 3 | `CS(=O)(=O)NCCNC(=O)NC1(c2ccc(F)cc2)CCCC1` | 22.76 |
| 4 | `Cc1ccc(CN2CCC(O)(Cn3ccc4ncccc43)CC2)o1.Cl` | 19.49 |
| 5 | `CC(C)(C)n1ncc(NCc2ccccc2)c(Cl)c1=O` | -56.94 |
| 6 | `Cc1cccc(Nc2nccnc2C2CCCN2CC(N)=O)n1` (stereo unspecified) | -0.1831 |
| 7 | `CCOc1ccc2[nH]c(=O)c(CN3CCCC3c3ccccn3)cc2c1` (stereo unspecified) | 6.344 |
| 8 | `[H][C@]12CCN(C(=O)c3ccccn3)CC[C@@]1([H])S(=O)(=O)N(CC(C)C)C2` | 17.99 |
| 9 | `Cc1cc(C)cc(C(=O)NCCCC2(C3OCCO3)CCOCC2)c1` | -6.992 |
| 10 | `CN(C)c1ccc(C(=O)N2CCCC(n3cncn3)C2)nn1` (stereo unspecified) | -15.91 |
| 11 | `CCCOc1ccc(C(=O)N[C@@H]2CCNC[C@H]2O)cc1Cl` | 29.39 |
| 12 | `COCCNCc1cc2ccc(C)c(C)c2[nH]c1=O` | 7.839 |
| 13 | `Cc1noc(C)c1CN(C)C(=O)C1(NS(C)(=O)=O)CCCCC1` | 5.18 |
| 14 | `Cc1ccc2c(c1)c(CNC(=O)C1CCN(C(=O)C3CC3)CC1)nn2C` | -84.46 |
| 15 | `CN(CCc1ncnn1C1Cc2ccccc2C1)C1CCS(=O)(=O)C1` (stereo unspecified) | 9.543 |
| 16 | `Cc1ccc(OC2(C(=O)O)CCN(C(=O)CCc3ccco3)CC2)cc1` | 15.68 |
| 17 | `CCN(C(=O)c1c(Cl)cnn1CC)C(C)C(N)=O` (stereo unspecified) | -3.426 |
| 18 | `[H][C@@]12CCN(C(=O)c3ccnnc3)C[C@@]1([H])O[C@@H](c1ccncn1)C2` | 12.39 |
| 19 | `O=C(c1cc(Br)ccc1-n1cnnn1)N1CCCCC1` | -22.04 |
| 20 | `CN1CC2(CCN(c3nc(N)nc4c3CCNC4)CC2)OC1=O` | 12.15 |
| 21 | `CCN1CCN(c2ccc(C(=O)NCCOC)cc2F)CC1` | -25.75 |
| 22 | `O=C(O)C(F)(F)F.O=C(O)C(F)(F)F.c1csc(CN2CCOCC3(CCN(C4CCOCC4)C3)C2)c1` (stereo unspecified) | 0.2905 |
| 23 | `Cc1ccc(N2CCN(CC3CC3)C3(CCN(C(C)C)CC3)C2=O)cn1.O=C(O)C(F)(F)F` | 27.31 |
| 24 | `Cc1ccc(F)cc1C(=O)OCC1CCCN1C(N)=O` (stereo unspecified) | -9.144 |
| 25 | `NCc1cnn(-c2ccccc2C(=O)N2CCCC(C(N)=O)C2)c1` (stereo unspecified) | -32.72 |
| 26 | `Cc1cccc(CN2CCC3(CCCN(C(=O)N4CCCC4)C3)C2=O)n1.O=C(O)C(F)(F)F` (stereo unspecified) | 3.037 |
| 27 | `[H][C@]12CC[C@@]3(N=C(C)N(CCOC)C3=O)[C@@]1([H])CN(C(=O)NC1CCCC1)C2` | 25.84 |
| 28 | `CN1CCC(N(C)CCC(=O)N2CCC(OCc3ccccc3)CC2)C1` (stereo unspecified) | 4.642 |
| 29 | `CN(C)C(c1ccccn1)[C@H]1CC[C@H](CNC(=O)CC2CCCC2)CC1` (stereo partly specified) | 13.68 |
| 30 | `O=C(c1ccc2c(c1)CCC2)N1CCn2ncnc2C1` | 41.98 |
| 31 | `Cc1ccccc1SCC(=O)NC1CCC(O)CC1` (stereo unspecified) | -33.51 |
| 32 | `COc1ccc(CN2CCCn3cnc(COC(C)C)c3C2)cc1.O=C(O)C(F)(F)F` | -21.81 |
| 33 | `CCn1c(C)nc2cc(NC(=O)C3CN(C(C)=O)C3)ccc21` | 0.5994 |
| 34 | `O=C(O)C(F)(F)F.[H][C@@]12CCN(c3ccc(C)nn3)C[C@]1([H])CN(C(=O)c1ccn(C)n1)C2` | -9.349 |
| 35 | `[H][C@@]12CN(C(=O)c3cnccn3)C[C@]1([H])C(=O)N(Cc1csc(C)n1)C2` | 14.13 |
| 36 | `O=C(O)C(F)(F)F.c1ncn(Cc2cn3c(n2)CN(CC2CCCC2)CC3)n1` | 12.74 |
| 37 | `Cc1nonc1NC(=O)CCn1cc(Br)ccc1=O` | 6.093 |
| 38 | `CC(=O)N1CCN(C(=O)C2SCCc3sccc32)CC1` (stereo unspecified) | 10.22 |
| 39 | `O=C(O)C(F)(F)F.[H][C@@]12COC[C@H](NS(C)(=O)=O)[C@]1([H])CN(Cc1ccc(C)s1)C2` | 29.29 |
| 40 | `[H][C@@]12CCN(Cc3cnn(C)c3)C[C@@]1([H])O[C@@H](c1nc(C3CC3)cs1)C2` | 17.22 |
| 41 | `Cn1cc(CN2CCN(Cc3nccn3C)CC2)cn1` | -52.53 |
| 42 | `[H][C@]12CC[C@]([H])(CN(C(=O)c3ccccn3)C1)N(C(=O)OC(C)C)C2` | -4.657 |
| 43 | `Cn1cc(CN2CCCn3cnc(CN4CCCC4=O)c3C2)cn1` | 21.94 |
| 44 | `Cc1ccc([C@H]2CN(C(=O)CC3CCC3)C[C@@H]2N)o1` | 24.58 |
| 45 | `CCc1ccccc1OC1CN(C(=O)CN(C)Cc2ccncc2)C1` | -2.311 |
| 46 | `c1nc2c(c(NCCCn3cncn3)n1)CCN(CC1CCOC1)CC2` (stereo unspecified) | 10.38 |
| 47 | `CSc1nccn1-c1cccc(C(=O)NCC2CC2)c1` | 35.64 |
| 48 | `CC(NC(=O)N1CCNC(=O)CC1)c1ccc(C(F)(F)F)cc1` (stereo unspecified) | 25.67 |
| 49 | `O=C(O)C(F)(F)F.[H][C@@]12CCN(Cc3nccs3)C[C@@]1([H])O[C@@H](C(=O)NC)C2` | 6.021 |
| 50 | `COc1ccccc1CN1CCC(Cc2cnc(CN(C)C)cn2)CC1` | 11.63 |
| 51 | `CN(C)C(=O)c1cn[nH]c1C1CCCN1Cc1c[nH]cn1` (stereo unspecified) | 30.43 |
| 52 | `Cn1ccc(C(=O)NC2CCC23CCN(C(=O)c2ccnnc2)CC3)c1` (stereo unspecified) | -46.57 |
| 53 | `CC(C)CCc1noc(CN2CCCN(C(=O)c3ccco3)CC2)n1` | 35.63 |
| 54 | `CC(C)(C)c1nc(CN(Cc2ccccc2Cl)C2CCCC2)no1` | 14.91 |
| 55 | `CC(C)(C)C(=O)N[C@H]1CC[C@H](Nc2nccc(-c3ccncc3)n2)C1` | 29.18 |
| 56 | `CNS(=O)(=O)c1cccc(C(C)NCc2cccc(C)c2C)c1` (stereo unspecified) | -0.5451 |
| 57 | `Cc1ccc(NC(=O)Nc2c[nH]c(=O)[nH]c2=O)c(Cl)c1` | 20.14 |
| 58 | `O=C(O)C(F)(F)F.[H][C@@]12CCN(CC3CCOC3)[C@@]1([H])CC(=O)N2Cc1csc(C)n1` (stereo partly specified) | 13.85 |
| 59 | `O=C(N1CCC(Oc2ccncc2)C1)C1(c2ccc(F)cc2)CC1` (stereo unspecified) | -34.95 |
| 60 | `CC(C)(CO)Nc1ccc(-c2nc(-c3ccccc3F)no2)cn1` | 41.34 |
| 61 | `CN1CCCC(CNC(=O)N2CCN(Cc3ccon3)CC2)C1` (stereo unspecified) | -5.193 |
| 62 | `COC1COC2(CCN(Cc3ccc4c(c3)OCO4)CC2)C1.O=C(O)C(F)(F)F` (stereo unspecified) | 13.11 |
| 63 | `CC(C)CCN1CCC2(CCCN(c3nncs3)C2)C1.O=C(O)C(F)(F)F` (stereo unspecified) | 0.9991 |
| 64 | `Cc1cccc(CN2C(=O)CCC23CCN(c2ncc(F)cn2)CC3)n1.O=C(O)C(F)(F)F` | 6.59 |
| 65 | `Cn1cc(-c2c(C#N)c(N)nc3c2CCc2[nH]ccc2-3)cc1C#N` | 1.934 |
| 66 | `CN1CC(=O)N(c2ccsc2)CC12CCN(S(=O)(=O)c1ccccc1)C2.O=C(O)C(F)(F)F` (stereo unspecified) | 4.283 |
| 67 | `O=C(O)C(F)(F)F.O=C(O)C(F)(F)F.[H][C@]12C[C@@H](Cn3cncn3)N(C)[C@@]1([H])CCN(Cc1cccc(C#N)c1)C2` | 28.98 |
| 68 | `[H][C@@]12CN(Cc3ccccn3)C[C@]1([H])CN(C(=O)Cc1ccccn1)C2` | 9.942 |
| 69 | `CCOCCC(=O)N1CCCC(c2ncc[nH]2)C1` (stereo unspecified) | -3.044 |
| 70 | `CCNC(=O)[C@@H]1C[C@@H](NC(=O)c2cnc[nH]c2=O)CN1Cc1ccsc1` | -1.197 |
| 71 | `Cc1nnc2n1CCN(CC(=O)NC(C)c1cc3ccccc3o1)C2` (stereo unspecified) | 23.5 |
| 72 | `c1cc(CN2CCOC[C@H]2c2nc(-c3ccncc3)c[nH]2)ccn1` | -2.053 |
| 73 | `Cc1noc(C(C)N2CCN(CCCN3CCCC3=O)CC2)n1` (stereo unspecified) | -11.87 |
| 74 | `c1ccc(CCc2noc(CN3CCC(N4CCSCC4)CC3)n2)cc1` | 31.48 |
| 75 | `CCn1c(N)nc2cc(C(=O)NCc3cccc(C)c3C)cnc21` | -44.39 |

For reference, 10 entries once more:

With CS(=O)(=O)NCCNC(=O)NC1(c2ccc(F)cc2)CCCC1 the screen gave 22.76%.
With CC(=O)N1CCN(C(=O)NCCCc2cn[nH]c2C)CC1 the screen gave -10.23%.
With Cc1ccc2c(c1)c(CNC(=O)C1CCN(C(=O)C3CC3)CC1)nn2C the screen gave -84.46%.
With CSc1nccn1-c1cccc(C(=O)NCC2CC2)c1 the screen gave 35.64%.
With CN1CC2(CCN(c3nc(N)nc4c3CCNC4)CC2)OC1=O the screen gave 12.15%.
With [H][C@@]12CN(Cc3ccccn3)C[C@]1([H])CN(C(=O)Cc1ccccn1)C2 the screen gave 9.942%.
With CC(C)(CO)Nc1ccc(-c2nc(-c3ccccc3F)no2)cn1 the screen gave 41.34%.
With [H][C@]12CCN(C(=O)c3ccccn3)CC[C@@]1([H])S(=O)(=O)N(CC(C)C)C2 the screen gave 17.99%.
With O=C(c1ccc2c(c1)CCC2)N1CCn2ncnc2C1 the screen gave 41.98%.
With CCCOc1ccc(C(=O)N[C@@H]2CCNC[C@H]2O)cc1Cl the screen gave 29.39%.